# The entries are a selection whose mix differs from that of the whole data set. The calls were merged from several studies; some rest on single wells. The list shows a part of the results.
# Protein sequences, listed by entry. Tags and fused reporters are not part of them. Lines headed by an entry give the natural chain unless they say otherwise; changes in a name come on top.
# UniProt Q8VG02: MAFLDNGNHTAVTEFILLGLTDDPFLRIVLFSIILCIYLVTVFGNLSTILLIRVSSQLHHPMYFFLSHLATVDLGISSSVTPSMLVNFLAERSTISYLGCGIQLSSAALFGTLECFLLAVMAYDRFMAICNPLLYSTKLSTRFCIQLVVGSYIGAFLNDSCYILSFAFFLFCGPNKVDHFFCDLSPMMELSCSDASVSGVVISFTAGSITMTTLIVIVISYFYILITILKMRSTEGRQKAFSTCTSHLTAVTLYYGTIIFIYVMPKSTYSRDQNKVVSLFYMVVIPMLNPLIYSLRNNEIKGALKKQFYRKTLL
# UniProt Q60886: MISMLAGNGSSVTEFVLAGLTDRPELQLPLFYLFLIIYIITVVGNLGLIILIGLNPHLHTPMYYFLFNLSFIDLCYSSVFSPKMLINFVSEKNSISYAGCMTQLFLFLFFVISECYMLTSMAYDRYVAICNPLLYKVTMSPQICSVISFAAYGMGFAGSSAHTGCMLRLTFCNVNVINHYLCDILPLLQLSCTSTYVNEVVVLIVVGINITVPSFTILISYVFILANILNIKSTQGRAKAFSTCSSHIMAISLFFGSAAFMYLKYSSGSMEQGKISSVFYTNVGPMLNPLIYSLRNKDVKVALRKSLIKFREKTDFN
# How the values were obtained:
# Settings in all cases: stereoisomer not certain
# [1] = target: Or5p64 (Mus musculus) (UniProt Q8VG02)
# Summary of the method: (§1)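 Whether a receptor–molecule pair is responsive (active) rests on the original authors' judgment that its measured signal was statistically different from baseline. Pairs without that judgment are non-responsive (inactive). Sources used varied assay methods, commonly transient luciferase assays in mammalian cell lines.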
# [2] = target: Or8b3 (Mus musculus) (UniProt Q60886)
# Summary of the method: as §1
# [3] = test system: Q7TRX1 A108G A152G V205I
# Summary of the method: as §1
# [4] = test system: Q7TRX1 A108G A152G
# Summary of the method: as §1
# [5] = test system: Q7TRX1 A108G V205I
# Summary of the method: as §1
# [6] = test system: Q7TRX1 A108G
# Summary of the method: as §1
# [7] = test system: Q7TRX1 A152G V205I
# Summary of the method: as §1
# [8] = test system: Q7TRX1 A152G
# Summary of the method: as §1
# 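Also: active if original authors judged signal statistically different from baseline.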
smiles,measurement,setting,value
O=C1CCCCCCCCCCCCCCO1,odorant receptor agonist call,[1],inactive
CC(=O)c1ccccc1,odorant receptor agonist call,[2],inactive
C=C(C)C1CC=C(C)C(=O)C1 (centres undefined),odorant receptor agonist call,[2],active
same,odorant receptor agonist call,[3],active
same,odorant receptor agonist call,[4],active
same,odorant receptor agonist call,[5],active
same,odorant receptor agonist call,[6],active
same,odorant receptor agonist call,[7],active
same,odorant receptor agonist call,[8],active

# Given with tabs: part of the list above
smiles	measurement	setting	value
C=C(C)C1CC=C(C)C(=O)C1 (centres undefined)	odorant receptor agonist call	[7]	active
same	odorant receptor agonist call	[8]	active

# — the M2OR odorant receptor database
